Measured values from patent publication US20080269237A1, “CARBAMIC ACID COMPOUNDS COMPRISING A PIPERAZINE LINKAGE AS HDAC INHIBITORS” (TOPOTARGET UK LIMITED, priority 2002, published 2008).

Test system: K11 (HPV E7 transformed human keratinocyte line)
Experiment: Secondary assay: cell proliferation inhibition WST-1, K11
Assay type: cell-based
Conditions: 48 h, read-out: Cell Proliferation Inhibition WST-1 (IC50 unless otherwise specified) K11
Text: Compounds with HDAC inhibition activity, as determined using the primary assay, were subsequently evaluated using secondary cell-based assays. The following cell lines were used:
HeLa—Human cervical adenocarcinoma cell line (ATCC ref. No. CCL-2). K11—HPV E7 transformed human keratinocyte line provided by Pidder Jansen-Duerr, Institut für Biomedizinische Altemsforschung, Innsbruck, Austria. NHEK-Ad—Primary human adult keratinocyte line (Cambrex Corp., East Rutherford, N.J., USA).
Cells were plated in 96-well plates at 3-10×10^3 cells/well in 100 μL of culture medium. The following day, different concentrations of candidate compounds were added and the cells incubated at 37° C. for 48 h. Subsequently, 10 μL/well of WST-1 reagent was added and the cells reincubated for 1 hour. After the incubation time, absorbance was measured.
WST-1 is a tetrazolium salt which is cleaved to formazan dye by cellular enzymes. […] The formazan dye produced is quantified by a scanning multiwell spectrophotometer by measuring the absorbance of the dye solution at 450 nm wavelength (reference wavelength 690 nm).
Percent activity (% activity) in reducing the number of viable cells was calculated for each test compound as: […]
IC50 values were calculated using the software package Prism 3.0 (GraphPad Software Inc., San Diego, Calif.), setting top value at 100 and bottom value at 0.

`O=C(CCCCCCC(=O)Nc1ccccc1)NO` [SAHA, suberoylanilide hydroxamic acid, reference compound] was tested, and the IC50 was 6.82 µM.
